Record: PubChem BioAssay AID1259424 (University of Nebraska Medical Center, 2018)
The deposit covers about 14,000 reagents; shown is a part drawn at random. 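Higher correlation or smaller distance means closer resemblance to KSR1 loss; control wells, including KSR1 knockdowns, recur on many plates.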 Not all columns of the deposit are shown. The record does not give: the time to read-out.

- Assay: 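Find knockdowns that reproduce the expression shifts seen after KSR1 loss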 (primary screen)
- Cells: human HCT116 colon cancer cells
- Reagents: siRNA pool against human genes, 50 nM
- Measured: 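Log2 levels of six mRNAs (branched-DNA multiplex), adjusted by two reference genes and the non-targeting median, then scored against the average KSR1 knockdown pattern as Pearson r and euclidean distance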
- Direction: mean correlation with KSR1 profile: higher = expression change more like KSR1 knockdown; mean distance from KSR1 profile: higher = expression change less like KSR1 knockdown

target,mean correlation with KSR1 profile,mean distance from KSR1 profile
IGF2 (insulin like growth factor 2),-0.0287,1.49
SRSF2 (serine and arginine rich splicing factor 2),0.307,1.83
NOS3 (nitric oxide synthase 3),0.784,1.3
SNU13 (small nuclear ribonucleoprotein 13),0.164,3.87
DHRS7 (dehydrogenase/reductase 7),-0.402,2.26
CSRNP2 (cysteine and serine rich nuclear protein 2),0.803,2.6
ACOT2 (acyl-CoA thioesterase 2),-0.381,3
QTRT1 (queuine tRNA-ribosyltransferase catalytic subunit 1),-0.0874,1.66
C7orf25 (chromosome 7 open reading frame 25),-0.315,2.79
DLX6 (distal-less homeobox 6),0.863,0.912
SLX4 (SLX4 structure-specific endonuclease subunit),-0.00863,3.13
IQCN (IQ motif containing N),-0.0135,1.66
WDR18 (WD repeat domain 18),-0.537,4.66
PLD2 (phospholipase D2),-0.309,3.48
AHSA1 (activator of HSP90 ATPase activity 1),0.00203,1.75
SSX1 (SSX family member 1),0.261,4.5
ERAP1 (endoplasmic reticulum aminopeptidase 1),0.0253,1.75
WWC1 (WW and C2 domain containing 1),-0.231,2.75
KCTD10 (potassium channel tetramerization domain containing 10),-0.00556,3.71
CUEDC2 (CUE domain containing 2),-0.28,2.29
CCNT2 (cyclin T2),0.303,2.51
MEIS2 (Meis homeobox 2),-0.737,3.27
DUSP6 (dual specificity phosphatase 6),-0.0897,2.19
CNGB3 (cyclic nucleotide gated channel subunit beta 3),-0.255,1.6
CLEC1B (C-type lectin domain family 1 member B),-0.0675,1.42
SLC28A2,-0.506,3.07
P2RY1 (purinergic receptor P2Y1),0.585,1.74
HM13 (histocompatibility minor 13),0.609,2.16
CD300E (CD300e molecule),-0.787,1.93
TAS2R16 (taste 2 receptor member 16),0.712,1.22
SLC38A2,-0.235,1.41
MPHOSPH6 (M-phase phosphoprotein 6),-0.487,3.13
DUSP22 (dual specificity phosphatase 22),-0.168,2.8
KCNN3 (potassium calcium-activated channel subfamily N member 3),0.0504,1.8
"RFTN1 (raftlin, lipid raft linker 1)",-0.305,3.72
TOR2A (torsin family 2 member A),-0.207,1.77
"H1-5 (H1.5 linker histone, cluster member)",-0.511,2.73
FAHD2A (fumarylacetoacetate hydrolase domain containing 2A),0.0862,2.39
WNK3 (WNK lysine deficient protein kinase 3),-0.0113,1.65
KIAA1671,0.0514,2.17
HADH (hydroxyacyl-CoA dehydrogenase),0.0787,1.33
TAS2R38 (taste 2 receptor member 38),-0.316,1.84
ZNF649 (zinc finger protein 649),-0.734,2.24
GMFG (glia maturation factor gamma),0.128,1.43
LRPPRC (leucine rich pentatricopeptide repeat containing),0.418,2.61
CELSR2 (cadherin EGF LAG seven-pass G-type receptor 2),0.883,0.863
"LSM10 (LSM10, U7 small nuclear RNA associated)",0.488,2.33
PCBP4 (poly(rC) binding protein 4),-0.193,2.99
SLC7A1,-0.133,1.62
MLEC (malectin),-0.637,2.47
